Laboratory results reported in PubChem BioAssay AID1487 (National Center for Advancing Translational Sciences (NCATS), 2009).
Where “and” joins values, the source holds several entries; their conditions need not be identical. Identical values can stand only once. The list shows a part of the results. The main result of the screen is listed elsewhere. These columns were measured beside it and carry no call. Most of these compounds were active or inconclusive in the main read-out, so they are no random draw. Potencies come from curve fits of mixed quality, noted in brackets.

Assay: qHTS Assay for Modulators of Lamin A Splicing
Conditions: HeLa LMNA splicing GFP/RFP minigene ratio, 48 h
How it was run: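 S3 HeLa cells stably expressing lamin A-EGFP splicing minigene plus DsRed2, 600 cells/well, 48 h compound exposure at 37C. Laser-scanning cytometry; analysed as GFP (500-530 nm)/RFP (575-640 nm) total intensity ratio; 0.5% DMSO vehicle.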

[1] = measured here: GFP splicing reporter channel
[2] = measured here: RFP viability control channel

Compound | AC50 [1] | AC50 [2]
O=[N+]([O-])c1ccccc1 | 0.0447 µM [falling, full curve, poor fit] | 
CC[N@+]1(C)CCC[C@@H](OC(=O)C(O)(c2ccccc2)c2ccccc2)C1 | 12.6 µM [falling, single point] | 0.00141 µM [rising, full curve, poor fit]
CN1C[C@H](CNC(=O)OCc2ccccc2)C[C@@H]2c3cccc4c3c(cn4C)C[C@H]21 | 7.08 µM [falling, full curve, poor fit] and 35.5 µM [falling, single point] | 7.08 µM [falling, partial curve, poor fit] and 15.8 µM [falling, partial curve, poor fit]
CCCOC1CCCN(C(=O)CCc2nnc(Cc3cccc(C)c3)o2)C1 (centres undefined) |  | 0.112 µM [falling, full curve, poor fit]
CCCCCCCCCCCCCCCC[N+](C)(C)C | 14.1 µM [rising, single point] | 0.562 µM [rising, full curve, poor fit]
N#CC(C#N)=Cc1cc(O)c(O)c(O)c1 | 35.5 µM [falling, single point] | 11.2 µM [rising, single point]
CCOc1ccccc1OCC(=O)Nc1ccc(Cl)cc1C(=O)c1ccccc1 | 17.8 µM [rising, single point] | 20 µM [rising, partial curve]
O=c1[nH]c(=S)[nH]c(O)c1N=Nc1ccc(OC(F)F)cc1 |  | 0.562 µM [rising, partial curve, poor fit]
Cc1[nH]n(-c2ccccc2)c(=O)c1C(c1cccc([N+](=O)[O-])c1O)c1c(C)[nH]n(-c2ccccc2)c1=O |  | 17.8 µM [rising, single point]
COc1ccc2c(c1)[C@@]13CCCC[C@H]1[C@@H](C2)NCC3 |  | 0.398 µM [rising, partial curve, poor fit]
COc1cc2c(c(OC)c1OC)-c1ccc(OC)c(=O)cc1[C@@H](NC(C)=O)CC2 | 31.6 nM [rising, full curve, poor fit] and 8.91 nM [falling, full curve] | 126 nM [rising, full curve] and 8.91 nM [falling, full curve]
COc1ccc(C2C(C#N)=C(N)Oc3n[nH]c(C)c32)cc1Cn1cc([N+](=O)[O-])cn1 (centres undefined) |  | 25.1 µM [falling, partial curve, poor fit]
Cc1ccc(/C(CSc2nccn2-c2ncc(C(F)(F)F)cc2Cl)=N\O)cc1 |  | 11.2 µM [rising, partial curve]
CCC1(CCCC(=O)c2ccc(F)cc2)C(=O)NC(=S)NC1=O |  | 2.82 µM [falling, partial curve]
CC[C@@H](CO)NC(=O)[C@@H]1C=C2c3cccc4c3c(cn4C)C[C@H]2N(C)C1 | 0.000794 µM [falling, full curve, poor fit] | 
CCn1cc(C(=O)O)c(=O)c2cc(F)c(N3CCNCC3)cc21 | 7.94 µM [falling, partial curve] and 1 µM [rising, full curve] | 7.94 µM [falling, partial curve, poor fit]

Compound | AC50 [1] | AC50 [2]
CC(Cc1ccccc1)NCc1ccccc1Cl (centres undefined) |  | 0.178 µM [rising, partial curve, poor fit]
COc1ccc(C(=O)Nc2ccc(S(=O)(=O)N(Cc3ccccc3)c3ccccc3)cc2)cc1 |  | 0.00708 µM [falling, full curve, poor fit]
O=C1C=C2C=C[C@H]3C[C@@]2(O1)[C@H]1CCCCN31 | 14.1 µM [falling, single point] | 10 µM [falling, single point]
COc1ccc(C(=O)C2CCCN(Cc3ccc(C)s3)C2)cc1OC (centres undefined) |  | 35.5 µM [falling, partial curve]
Cc1ccc(S(=O)(=O)Nc2cc(C(=O)N3CCC4(CC3)OCCO4)ccc2N2CCCCC2)cc1 | 35.5 µM [rising, single point] | 
C[C@]12C=CC(=O)C=C1CCC1C2=CC[C@]2(C)[C@@H](C(=O)CN3CCN(c4cc(N5CCCC5)nc(N5CCCC5)n4)CC3)CC[C@@H]12 (some centres undefined) | 2.82 µM [falling, partial curve] | 
C[CH2][Hg][S]c1ccccc1C(=O)O | 0.708 µM [falling, full curve] | 0.1 µM [falling, full curve]
CC1OC1P(=O)(O)O (centres undefined) | 11.2 µM [rising, partial curve] | 10 µM [rising, partial curve]
Cc1ccc(/C=C2\C(=O)NC(=S)N(c3ccccc3F)C2=O)s1 |  | 17.8 µM [rising, partial curve]
C[C@@H]1O[C@H](O[C@@H]2CC[C@@]3(C=O)[C@H]4CC[C@@]5(C)[C@@H](C6=CC(=O)OC6)CC[C@@]5(O)[C@@H]4CC[C@]3(O)C2)C[C@H](O)[C@@H]1O | 0.000891 µM [falling, full curve, poor fit] | 14.1 µM [falling, partial curve, poor fit]
COC(=O)C(O)(c1ccc(NC(=S)NC(=O)c2ccc(Cl)cc2Cl)cc1)C(F)(F)F (centres undefined) | 35.5 µM [rising, single point] | 35.5 µM [rising, single point]
COc1cccc(C(=O)C2CN(C)CC2c2ccc(Cl)cc2)c1 (centres undefined) | 11.2 µM [falling, partial curve, poor fit] | 
O=C(c1ccc(-c2ccccc2)cc1)C1CCCN(Cc2ccn[nH]2)C1 (centres undefined) |  | 7.94 µM [falling, full curve, poor fit]
COc1cc2c(cc1/C=C/[N+](=O)[O-])OCO2 |  | 5.62 µM [falling, single point]
C[C@H](CCC(=O)O)[C@H]1CC[C@@H]2[C@H]3CC[C@H]4C[C@@H](O)CC[C@@]4(C)[C@H]3CC[C@]21C | 1.12 µM [falling, partial curve, poor fit] | 1.41 µM [falling, single point]
